In patent publication US9701655B2, “Functionalised benzopyran compounds and use thereof” (NOVOGEN LIMITED, priority 2014, dated 2017):
At least one compound was matched to its structure with a doubt left.

System: TMZ-resistant and sensitive subclones of U87 and D54
Test: Anti-proliferative activity across matched TMZ susceptible and resistant GBM cell lines
Assay type: cell-based
Protocol: The anti-proliferative activity of compound 2 was also assessed in matched TMZ susceptible (D54-S and U87-S) or resistant (D54-R and […]) cell lines (Hong Kong University, Dr Gilberto Leung). […] SRB tended to overestimate cytotoxicity compared to MTT.

Cn1nnc2c(C(N)=O)ncn2c1=O [TMZ, temozolomide, reference compound]
anti-proliferative activity against TMZ-resistant versus TMZ-sensitive subclones: reduced efficacy
